Measured values taken from article PMC8092281, “Two Distinct Conformations in 34 FliF Subunits Generate Three Different Symmetries within the Flagellar MS-Ring” (mBio, 2021).
These are yes or no findings as the source states them, for the method shown. For some assays here: Binding seen in cells or lysates may run through a third protein. Some results given as binding are weak or reduced against the parent protein; the word gives no strength.

T1: Salmonella FliF (MS-ring of the purified MS-FliG ring complex) (Salmonella) (UniProt P15928)
T1 sequence: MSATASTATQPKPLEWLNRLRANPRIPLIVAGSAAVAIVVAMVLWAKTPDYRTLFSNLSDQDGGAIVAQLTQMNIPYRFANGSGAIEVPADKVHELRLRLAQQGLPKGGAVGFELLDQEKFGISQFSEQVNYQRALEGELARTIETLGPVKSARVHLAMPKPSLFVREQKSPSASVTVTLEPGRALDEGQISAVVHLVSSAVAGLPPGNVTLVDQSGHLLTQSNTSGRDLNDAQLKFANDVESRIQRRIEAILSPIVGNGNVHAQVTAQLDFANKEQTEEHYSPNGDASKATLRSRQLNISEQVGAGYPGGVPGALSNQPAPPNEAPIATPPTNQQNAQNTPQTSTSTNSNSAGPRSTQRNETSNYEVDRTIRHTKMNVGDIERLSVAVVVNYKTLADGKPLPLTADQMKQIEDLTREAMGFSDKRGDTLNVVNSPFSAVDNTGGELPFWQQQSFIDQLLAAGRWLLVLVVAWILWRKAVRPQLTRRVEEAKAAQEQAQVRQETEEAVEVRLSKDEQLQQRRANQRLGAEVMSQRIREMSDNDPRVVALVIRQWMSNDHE


Key:
[1] = target: T1, Salmonella FliF (MS-ring of the purified MS-FliG ring complex) (Salmonella); test: co-sedimentation; FliF and FliG co-expressed in Salmonella; membranes solubilised with DDM, ultracentrifugation and 15% to 40% sucrose density gradient; fractions containing FliF and FliG collected
[2] = target: Aa-FliF(58-213), fragment of FliF from Aquifex aeolicus (N-terminal half of the periplasmic region, domains D1 and D2) (Aquifex aeolicus) (UniProt O67241); test: crystal structure; His-FliF(58-213) crystallised at 4°C from 100 mM Na/K phosphate pH 6.2, 2.5 M NaCl; space group H3, two molecules in the asymmetric unit; 2.3 Å; both purified

Row | binding [1] | binding [2] | Binder
1 | binds | – | Salmonella FliG (of the MS-FliG ring complex) (protein, UniProt P0A1J9 1-331) MSNLSGTDKSVILLMTIGEDRAAEVFKHLSTREVQALSTAMANVRQISNKQLTDVLSEFEQEAEQFAALNINANEYLRSVLVKALGEERASSLLEDILETRDTTSGIETLNFMEPQSAADLIRDEHPQIIATILVHLKRSQAADILALFDERLRHDVMLRIATFGGVQPAALAELTEVLNGLLDGQNLKRSKMGGVRTAAEIINLMKTQQEEAVITAVREFDGELAQKIIDEMFLFENLVDVDDRSIQRLLQEVDSESLLIALKGAEPPLREKFLRNMSQRAADILRDDLANRGPVRLSQVENEQKAILLIVRRLAETGEMVIGSGEDTYV
2 | – | no binding | Aa-FliF(58-213), fragment of FliF from Aquifex aeolicus (N-terminal half of the periplasmic region, domains D1 and D2) (domain or fragment, UniProt O67241 58-213) PDDLNAVVTELDKEGVKYKISPDGRTIYVPENVARELRLKLAAKGVPRKGIVGYELFDKSGIVLSRFQQLVNFKRAIEGELAKTIMSLDCVEFARVHIVLPEKSLFIREEEEAKASVFLKLKPGCELTPEQVKAIRNLVSGSVENLKPSQVVVVDD
